Test results from paper PMC10279885.

What was measured:
[1] = molecular target: T1, NAI2 (full length), expressed as NAI2:NV and as NAI2:CV for BiFC (Arabidopsis thaliana) (UniProt Q9LSB4); assay: split reporter; BiFC with NV and CV fragments of Venus in N. benthamiana leaves, confocal microscopy 5 d after agro-infiltration
T1 sequence: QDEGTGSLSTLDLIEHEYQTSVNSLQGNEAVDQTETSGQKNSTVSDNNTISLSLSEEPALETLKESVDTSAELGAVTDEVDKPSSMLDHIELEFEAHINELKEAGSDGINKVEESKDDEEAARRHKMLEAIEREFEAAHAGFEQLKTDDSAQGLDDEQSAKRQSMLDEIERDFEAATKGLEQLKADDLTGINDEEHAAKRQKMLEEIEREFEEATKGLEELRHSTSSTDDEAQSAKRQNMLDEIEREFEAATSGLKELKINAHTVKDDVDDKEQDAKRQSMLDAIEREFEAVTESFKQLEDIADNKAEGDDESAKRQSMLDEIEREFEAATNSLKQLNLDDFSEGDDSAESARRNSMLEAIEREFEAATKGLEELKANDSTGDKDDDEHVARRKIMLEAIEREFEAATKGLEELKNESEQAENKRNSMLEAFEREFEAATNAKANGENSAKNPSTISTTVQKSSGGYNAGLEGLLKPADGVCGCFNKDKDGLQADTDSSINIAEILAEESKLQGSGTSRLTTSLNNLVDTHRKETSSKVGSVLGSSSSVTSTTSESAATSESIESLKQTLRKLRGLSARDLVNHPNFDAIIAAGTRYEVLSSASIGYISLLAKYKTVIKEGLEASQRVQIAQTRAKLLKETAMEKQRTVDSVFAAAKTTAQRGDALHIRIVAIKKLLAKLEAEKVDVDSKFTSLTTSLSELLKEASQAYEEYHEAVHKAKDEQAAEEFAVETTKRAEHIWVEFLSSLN

[2] = molecular target: T2, NAI2 (wild type), expressed as NAI2:HA and as NAI2:GFP (Arabidopsis thaliana) (UniProt Q9LSB4); assay: co-IP; N. benthamiana leaf extracts 5 d after agro-infiltration; IP buffer 50 mM Tris-HCl pH 7.5, 150 mM NaCl, 0.1% Triton X-100; anti-GFP antibody overnight at 4 °C, protein-A beads; western blot with anti-HA and anti-GFP
T2 sequence: T1 sequence

Substance: CV alone (C-terminal fragment of Venus fluorescent protein) (domain or fragment)
- binding [1]: no binding

Substance: NAI2ΔED:CV (from UniProt Q9LSB4)
- binding [1]: binds

Substance: NAI2ΔED:HA (from UniProt Q9LSB4)
- binding [2]: binds

Substance: NAI2ΔND:CV (Arabidopsis thaliana) (domain or fragment)
- binding [1]: binds weakly

Substance: NAI2ΔND:HA (Arabidopsis thaliana) (domain or fragment)
- binding [2]: no binding

These are yes or no findings as the source states them, for the method shown. In cells and extracts the contact can be indirect. Binding can be weak; no strength is given. For some assays here: Where a sequence is shown, tags or fusion partners need not be part of it.
